Source: PubChem BioAssay AID1671190 (National Center for Advancing Translational Sciences (NCATS), 2021)
Values joined by “and” are separate entries in the source; they are usually repeats but may differ in a detail not shown here. Equal values may be shown once. Out of some 580,000 compounds screened, about 6,100 (1.1%) were called active. The shares of active, inactive and inconclusive entries below differ from those in the screen. The call rests on the fitted dose curve; in most records, active means well fitted inhibition curve with a large enough effect; inconclusive means small, poorly fitted or top-dose-only effect, or another doubt; inactive means no such curve, though single readings can be large or run the other way. Where the call is inconclusive, the potency comes from a doubtful curve fit.

Sequences of proteins named here, by UniProt entry; tags and fusion partners are left off. A change or cut given only in a name is not applied to a line headed by its entry.
UniProt P18054: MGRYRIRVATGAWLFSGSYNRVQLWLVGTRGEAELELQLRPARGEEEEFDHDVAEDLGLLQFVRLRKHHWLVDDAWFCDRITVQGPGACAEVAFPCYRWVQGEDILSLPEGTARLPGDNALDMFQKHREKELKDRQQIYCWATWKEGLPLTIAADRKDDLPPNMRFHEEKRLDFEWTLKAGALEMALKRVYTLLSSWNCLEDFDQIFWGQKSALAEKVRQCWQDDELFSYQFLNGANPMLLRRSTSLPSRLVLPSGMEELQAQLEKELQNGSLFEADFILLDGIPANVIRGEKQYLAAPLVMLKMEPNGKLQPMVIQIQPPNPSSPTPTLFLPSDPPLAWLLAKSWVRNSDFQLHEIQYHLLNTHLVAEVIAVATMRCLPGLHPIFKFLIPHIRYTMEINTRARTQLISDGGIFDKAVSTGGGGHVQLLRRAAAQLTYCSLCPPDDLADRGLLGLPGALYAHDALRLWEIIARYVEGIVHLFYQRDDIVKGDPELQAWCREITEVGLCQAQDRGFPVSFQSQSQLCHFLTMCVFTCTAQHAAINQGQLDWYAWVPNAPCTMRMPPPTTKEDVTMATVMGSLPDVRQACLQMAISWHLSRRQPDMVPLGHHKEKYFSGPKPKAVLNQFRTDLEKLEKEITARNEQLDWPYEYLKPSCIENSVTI

Molecular target: Polyunsaturated fatty acid lipoxygenase ALOX12 (Homo sapiens) (UniProt P18054)
Assay: Primary qHTS assay for inhibitors of human arachidonate 12S-lipoxygenase (ALOX12): Round 2
Conditions: purified 12hLO, xylenol orange hydroperoxide absorbance; series mostly up to 108 µM
In short: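 Purified human 12hLO at 150 nM in 25 mM Hepes, 0.01% Triton X-100, pH 7.0, preincubated 15 min at room temperature with compound. Reaction started with 40 uM arachidonic acid, 30 min at room temperature. Hydroperoxide measured by Fe-xylenol orange, 573/405 nm absorbance ratio.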
Potency means the concentration at half of the fitted maximal effect.

Compound | Potency
CN1C(C(=O)Nc2ccccn2)=C(O)c2sccc2S1(=O)=O | inconclusive: 18.1 µM [inhibitor, single point] and inconclusive: 2.82 µM [inhibitor, full curve, poor fit]
Cc1ccc(Nc2nc(-c3sc(C)nc3C)cs2)cc1 | inconclusive: 35.5 µM [inhibitor, partial curve]
O=C(N/N=C/c1ccc(O)cc1O)/C(=C/c1ccccc1)CCO | inconclusive: 3.16 µM [inhibitor, full curve, poor fit]
Cc1ccc(C(C)C)cc1S(=O)(=O)NCc1ccccn1 | inactive
CN(C)CCNC(=O)[C@H]1C[C@@H](O)[C@H](O)[C@@H]2N=C(Nc3ccc(Cl)cc3)S[C@@H]21 | inactive
COC(=O)c1cc2c(ccn2C)n1C | inconclusive: 0.355 µM [inhibitor, full curve]
Cc1ccc(-c2ccc(=O)n(CC(=O)Nc3c(C)cccc3C)n2)cc1S(=O)(=O)N1CCCCC1 | inconclusive: 3.16 µM [inhibitor, full curve, poor fit]
Cc1csc(Nc2ccc(Cl)cc2)n1 | inconclusive: 89.1 µM [inhibitor, single point]
CCCN1CCN(C(=O)c2ccccc2-c2nc3ccccc3s2)CC1 | inactive
CCNCc1ccc(O)c(OCC)c1 | inconclusive: 25.1 µM [inhibitor, single point]
CC(C)C[C@H]1CN(CCCC[C@@H]2CNC(=O)C(=O)N2CCc2ccccc2)C(=O)C(=O)N1Cc1ccccc1 | inconclusive: 158 µM [inhibitor, partial curve, poor fit]
Cc1ccc(NCCC(=O)c2cc3ccccc3o2)cc1Cl | inconclusive: 35.5 µM [inhibitor, partial curve, poor fit]
CC(=O)c1sc2nsc(SCCN3CCCCC3)c2c1N | inconclusive: 126 µM [inhibitor, partial curve, poor fit]
CC(C)C[C@@H](CO)NC(=O)[C@H](NC(=O)C(c1ccccc1)c1ccccc1)c1ccccc1 | inactive
Cc1cc(C)c2[nH]c(C(=O)Nc3ccc(F)cc3Br)cc2c1 | inconclusive: 50.1 µM [inhibitor, partial curve, poor fit]
CN(C(=O)CC1C(=O)NCCN1Cc1ccoc1)C1CCOCC1 (configuration not stated) | inactive
Cn1nnnc1Sc1ncnc2scc(-c3ccccc3Cl)c12 | inactive
COc1ccc(-c2nc3c(s2)CN(C(C(=O)O)c2c[nH]c4ccc(CO)cc24)CC3)cc1OC (configuration not stated) | inconclusive: 44.7 µM [inhibitor, single point]
CCCc1nc2nc(C)c(NS(=O)(=O)c3ccc(C4CCCCC4)cc3)c(=O)n2[nH]1 | inconclusive: 126 µM [inhibitor, partial curve, poor fit]
Cc1ccc(N2C(N)=C(C#N)C(c3ccsc3)C3=C2CC(C)(C)CC3=O)cc1 (configuration not stated) | inconclusive: 39.8 µM [inhibitor, partial curve, poor fit]
Cc1cccc(NC(=O)C(C#N)=C2CCCCC2)c1 | inactive

An excerpt from above in order of molar mass, largest number first:
Compound | Potency
CC(C)C[C@H]1CN(CCCC[C@@H]2CNC(=O)C(=O)N2CCc2ccccc2)C(=O)C(=O)N1Cc1ccccc1 | inconclusive: 158 µM [inhibitor, partial curve, poor fit]
Cc1ccc(-c2ccc(=O)n(CC(=O)Nc3c(C)cccc3C)n2)cc1S(=O)(=O)N1CCCCC1 | inconclusive: 3.16 µM [inhibitor, full curve, poor fit]
COc1ccc(-c2nc3c(s2)CN(C(C(=O)O)c2c[nH]c4ccc(CO)cc24)CC3)cc1OC (configuration not stated) | inconclusive: 44.7 µM [inhibitor, single point]
CC(C)C[C@@H](CO)NC(=O)[C@H](NC(=O)C(c1ccccc1)c1ccccc1)c1ccccc1 | inactive
CN(C)CCNC(=O)[C@H]1C[C@@H](O)[C@H](O)[C@@H]2N=C(Nc3ccc(Cl)cc3)S[C@@H]21 | inactive
Cc1ccc(N2C(N)=C(C#N)C(c3ccsc3)C3=C2CC(C)(C)CC3=O)cc1 (configuration not stated) | inconclusive: 39.8 µM [inhibitor, partial curve, poor fit]
CCCN1CCN(C(=O)c2ccccc2-c2nc3ccccc3s2)CC1 | inactive
Cn1nnnc1Sc1ncnc2scc(-c3ccccc3Cl)c12 | inactive
CC(=O)c1sc2nsc(SCCN3CCCCC3)c2c1N | inconclusive: 126 µM [inhibitor, partial curve, poor fit]
CN1C(C(=O)Nc2ccccn2)=C(O)c2sccc2S1(=O)=O | inconclusive: 18.1 µM [inhibitor, single point] and inconclusive: 2.82 µM [inhibitor, full curve, poor fit]
CN(C(=O)CC1C(=O)NCCN1Cc1ccoc1)C1CCOCC1 (configuration not stated) | inactive
O=C(N/N=C/c1ccc(O)cc1O)/C(=C/c1ccccc1)CCO | inconclusive: 3.16 µM [inhibitor, full curve, poor fit]
Cc1ccc(NCCC(=O)c2cc3ccccc3o2)cc1Cl | inconclusive: 35.5 µM [inhibitor, partial curve, poor fit]
Cc1ccc(C(C)C)cc1S(=O)(=O)NCc1ccccn1 | inactive
Cc1ccc(Nc2nc(-c3sc(C)nc3C)cs2)cc1 | inconclusive: 35.5 µM [inhibitor, partial curve]
Cc1cccc(NC(=O)C(C#N)=C2CCCCC2)c1 | inactive
Cc1csc(Nc2ccc(Cl)cc2)n1 | inconclusive: 89.1 µM [inhibitor, single point]
CCNCc1ccc(O)c(OCC)c1 | inconclusive: 25.1 µM [inhibitor, single point]
COC(=O)c1cc2c(ccn2C)n1C | inconclusive: 0.355 µM [inhibitor, full curve]

(cont.)

Compound | Potency
CNC(=S)/N=C(/Nc1ccccc1)c1ccccc1 | inconclusive: 79.4 µM [inhibitor, partial curve, poor fit]
O=C(N1CC(Oc2ccccc2-c2nc(C3CC3)no2)C1)C1(c2ccccc2)CC1 | inconclusive: 89.1 µM [inhibitor, single point]
O=C(O)CCSc1ccccc1Br | inconclusive: 50.1 µM [inhibitor, partial curve, poor fit]
COc1cccc(OC)c1C(=O)N1CCN(Cc2ccncc2)CC1 | inconclusive: 2.51 µM [inhibitor, full curve, poor fit]
CNC(=O)CN1CN(c2ccccc2)C2(CCN(C(=O)NC34CC5CC(CC(C5)C3)C4)CC2)C1=O | inactive
COc1ccc(C(=O)/C=C/c2cn(CC(O)CN(CC(C)C)CC(C)C)c3ccccc23)cc1 (configuration not stated) | inconclusive: 56.2 µM [inhibitor, partial curve, poor fit]
COc1ccc(C(=O)N2CCN(C(=O)c3nnn4c3COC(c3ccc(C)cc3)C4)CC2)cc1 (configuration not stated) | inactive
O=C(CSc1nnc(C2CC2)o1)c1c[nH]c2ccccc12 | inactive
CC(C)c1cccc(C(C)C)c1NC(=O)C1CC=CCC1 (configuration not stated) | inconclusive: 112 µM [inhibitor, single point]
O=C(OCc1nc2ccccc2[n+]([O-])c1C(=O)c1ccccc1)c1ccco1 | inactive
Cc1ccc(C)c(-n2c(-c3csc(C)c3C)n[nH]c2=S)c1 | inconclusive: 44.7 µM [inhibitor, partial curve, poor fit]
COc1cccc(Oc2c(C(F)(F)F)oc3cc(OC(C)=O)ccc3c2=O)c1 | inconclusive: 31.6 µM [inhibitor, partial curve, poor fit]
Fc1ccccc1CNCCOc1ccccn1 | inconclusive: 35.5 µM [inhibitor, partial curve, poor fit]
CCCCOc1ccc(C(=O)N/C(=C/C=C/c2ccccc2)C(=O)NCCCO)cc1 | inconclusive: 100 µM [inhibitor, single point]
O=C(O)CCc1ncc(-c2ccccc2F)o1 | inconclusive: 63.1 µM [inhibitor, partial curve, poor fit]
CCOc1c2ccc(C(=O)NCc3ccc4c(c3)OCO4)cc2nn1CC | inconclusive: 28.2 µM [inhibitor, partial curve, poor fit]
CC(=O)NNC(=S)NC(=O)c1cccc([N+](=O)[O-])c1 | inconclusive: 44.7 µM [inhibitor, partial curve, poor fit]
CCOC(=O)CCCCCC(=O)Nc1ccc2c(c1)C(=O)N([C@H](C)CO)C[C@@H](C)[C@@H](CN(C)S(=O)(=O)c1ccc(C)cc1)OCCCC[C@H](C)O2 | inconclusive: 112 µM [inhibitor, single point]
COc1cc(CCC(=O)OCC(=O)c2ccccc2Br)cc(OC)c1OC | inconclusive: 0.141 µM [inhibitor, full curve, poor fit]
Cc1c(N/C(=N/S(=O)(=O)c2ccc(Cl)cc2)c2ccccc2)c(=O)n(-c2ccccc2)n1C | inactive
O=C(c1ccno1)N1CCN2C(=O)N(Cc3ccc(F)cc3)C[C@H]2C1 | inconclusive: 11.2 µM [inhibitor, full curve]

Reprinted at random: 2 compounds from above
Compound | Potency
CC(=O)c1sc2nsc(SCCN3CCCCC3)c2c1N | inconclusive: 126 µM [inhibitor, partial curve, poor fit]
Cc1ccc(Nc2nc(-c3sc(C)nc3C)cs2)cc1 | inconclusive: 35.5 µM [inhibitor, partial curve]

More structures:

Compound | Potency
COc1ccc(NC(=O)c2nn(-c3ccccc3)ccc2=O)c(OC)c1 | inconclusive: 22.4 µM [inhibitor, partial curve, poor fit]
O=C(O)C(c1c[nH]c2ccccc12)N1CCN(Cc2ccncc2)CC1 (configuration not stated) | inconclusive: 6.31 µM [inhibitor, full curve, poor fit]
CCOCCCNc1ncnc2c1CN(C1CCNCC1)C(=O)CN2C | inconclusive: 8.91 µM [inhibitor, full curve]
Cc1cccc(C(=O)NC(C(=O)N2CCOCC2)C2CCN(C(=O)c3ccc4c(c3)OCO4)CC2)c1 (configuration not stated) | inactive
COc1cc(/C=C2\CCC/C(=C\c3ccc(O)c(OC)c3)C2=O)ccc1O | inconclusive: 50.1 µM [inhibitor, partial curve, poor fit]
CCn1nc(C)c(CN2CCC(C(=O)Nc3cccc(-c4cccc(Cl)c4)c3)CC2)c1C | inactive
CS(=O)(=O)N(CC(=O)Nc1ccc(Br)cc1)c1cccc(Cl)c1Cl | inconclusive: 12.6 µM [inhibitor, full curve, poor fit]
COc1ccc(OC)c(C2CCCN2C(=O)NCCn2ccnc2)c1 (configuration not stated) | inconclusive: 89.1 µM [inhibitor, partial curve, poor fit]
Cc1c(C(=O)N2C[C@@H](C(=O)O)[C@H](c3ccccc3)C2)sc2nc[nH]c(=O)c12 | inactive
Cc1nc2sc(C(c3ccco3)N3CCc4ccccc4C3)c(O)n2n1 (configuration not stated) | inconclusive: 5.62 µM [inhibitor, full curve]
COCCNC(=O)c1ccc(-n2c(-c3ccccc3)cc3c2CCCCC3)cc1 | inactive
O=c1[nH][nH]c2c1C(c1ccc(F)cc1)OC(CCc1ccccc1)C2 (configuration not stated) | inconclusive: 100 µM [inhibitor, single point]
Cc1cc2c(-c3ccc(S(C)(=O)=O)cc3)nc(-c3c(C)noc3C)cc2[nH]1 | inconclusive: 50.1 µM [inhibitor, full curve]
Cc1ccc(C(=O)N/C(=C\c2ccco2)C(=O)NC2CCS(=O)(=O)C2)cc1 (configuration not stated) | inconclusive: 39.8 µM [inhibitor, partial curve, poor fit]
O=C(NCc1ccco1)C12CN(Cc3ccccc3)CC1C(c1ccc([N+](=O)[O-])cc1)=NO2 (configuration not stated) | inconclusive: 7.94 µM [inhibitor, partial curve, poor fit]
O=C(Nc1ccc(Cl)cc1)N[C@H]1CC[C@H](CCn2cc(-c3ccccc3F)nn2)O[C@@H]1CO | inconclusive: 141 µM [inhibitor, partial curve, poor fit]
CCN(Cc1ccccc1)S(=O)(=O)c1ccc(OC)c2ncccc12 | inconclusive: 100 µM [inhibitor, single point]
CC(C)C(c1nnnn1Cc1cccs1)N1CCN(C(=O)c2ccco2)CC1 (configuration not stated) | inconclusive: 0.891 µM [inhibitor, full curve, poor fit]
CC(C)c1ccc(OCCCN2CCC(C(O)(c3ccccc3)c3ccccc3)CC2)cc1 | inconclusive: 50.1 µM [inhibitor, partial curve, poor fit]
O=C(NC(c1ccc(Cl)cc1)c1ccsc1)C1CCN(CCOc2ccc(Cl)cc2)CC1 (configuration not stated) | active: 31.6 µM
